These are yes or no findings as the source states them, for the method shown. Some entries that bind do so weakly or less than the wild type.
Molecular target: T1, Death Receptor 3 (DR3) natively expressed on human TF-1 cells (human) (UniProt Q93038)
T1 sequence (looked up): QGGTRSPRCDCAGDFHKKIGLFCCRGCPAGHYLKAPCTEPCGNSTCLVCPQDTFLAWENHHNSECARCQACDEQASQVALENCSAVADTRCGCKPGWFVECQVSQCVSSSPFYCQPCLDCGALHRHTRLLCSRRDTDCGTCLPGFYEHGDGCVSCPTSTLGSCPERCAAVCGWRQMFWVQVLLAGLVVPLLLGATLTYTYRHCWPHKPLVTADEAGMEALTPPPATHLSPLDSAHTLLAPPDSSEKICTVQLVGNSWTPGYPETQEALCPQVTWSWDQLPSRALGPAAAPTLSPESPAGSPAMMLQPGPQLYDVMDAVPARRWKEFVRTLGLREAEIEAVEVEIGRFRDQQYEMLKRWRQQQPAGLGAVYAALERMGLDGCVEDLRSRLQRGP
Experiment: TF-1 cell caspase activation assay

B1: recombinant human TL1A protein (tumor necrosis factor-like cytokine 1A) (ligand, UniProt O95150 72-251, looked up)
chain: LKGQEFAPSHQQVYAPLRADGDKPRAHLTVVRQTPTQHFKNQFPALHWEHELGLAFTKNRMNYTNKFLLIPESGDYFIYSQVTFRGMTSECSEIRQAGRPNKPDSITVVITKVTDSYPEPTQLLMGTKSVCEVGSNWFQPIYLGAMFSLQEGDKLMVNVSDISLVDYTKEDKTFFGAFLL
  binding: binds

B2: recombinant cynomolgus monkey TL1A protein (ligand)
chain: LKGQEFAPSHQQVYAPLRADGDKPRAHLTVVRQTPTQHLKNQFPALHWEHELGLAFTKNRMNYTNKFLLIPESGDYFVYSQVTFRGMTSECSEIRQAGRPNKPDSITVVITKVTDSYPEPTQLLMGTKSVCEVGSNWFQPIYLGAMFSLQEGDKLMVNVSDISLVDYTKEDKTFFGAFLL
  binding: binds

— patent publication US20250243289A1
